These are yes or no findings as the source states them, for the method shown. In cells and extracts the contact can be indirect. Some results given as binding are weak or reduced against the parent protein; the word gives no strength. Tags and fused reporters may be left off the sequences shown.
Experiments:
[1] = target: T1, Mub1-Flag (budding yeast) (UniProt Q03162); test: co-IP; anti-Flag immunoprecipitation from budding yeast lysate in BH/0.15; immunoblot (anti-Myc, anti-Mif2); Mif2-Flag with Mub1-Myc in the presence or absence of UBR2
T1 sequence: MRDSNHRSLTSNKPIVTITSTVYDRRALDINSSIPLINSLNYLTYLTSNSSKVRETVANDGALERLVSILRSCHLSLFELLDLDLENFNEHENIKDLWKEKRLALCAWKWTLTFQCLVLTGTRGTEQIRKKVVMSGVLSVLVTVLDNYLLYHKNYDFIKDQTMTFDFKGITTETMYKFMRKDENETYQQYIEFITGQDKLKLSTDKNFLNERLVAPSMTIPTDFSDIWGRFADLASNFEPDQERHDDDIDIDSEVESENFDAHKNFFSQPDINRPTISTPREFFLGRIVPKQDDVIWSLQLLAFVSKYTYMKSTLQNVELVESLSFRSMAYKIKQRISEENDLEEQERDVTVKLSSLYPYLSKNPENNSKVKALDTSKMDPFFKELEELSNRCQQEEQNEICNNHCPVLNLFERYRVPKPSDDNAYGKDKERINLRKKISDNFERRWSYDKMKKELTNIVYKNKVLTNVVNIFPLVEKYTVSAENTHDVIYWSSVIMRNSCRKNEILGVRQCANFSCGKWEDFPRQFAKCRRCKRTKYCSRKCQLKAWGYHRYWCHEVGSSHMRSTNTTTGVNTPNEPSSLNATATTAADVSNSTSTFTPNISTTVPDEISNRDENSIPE

The chains behind the UniProt entries cited, without tags or fusion partners.
UniProt P35201: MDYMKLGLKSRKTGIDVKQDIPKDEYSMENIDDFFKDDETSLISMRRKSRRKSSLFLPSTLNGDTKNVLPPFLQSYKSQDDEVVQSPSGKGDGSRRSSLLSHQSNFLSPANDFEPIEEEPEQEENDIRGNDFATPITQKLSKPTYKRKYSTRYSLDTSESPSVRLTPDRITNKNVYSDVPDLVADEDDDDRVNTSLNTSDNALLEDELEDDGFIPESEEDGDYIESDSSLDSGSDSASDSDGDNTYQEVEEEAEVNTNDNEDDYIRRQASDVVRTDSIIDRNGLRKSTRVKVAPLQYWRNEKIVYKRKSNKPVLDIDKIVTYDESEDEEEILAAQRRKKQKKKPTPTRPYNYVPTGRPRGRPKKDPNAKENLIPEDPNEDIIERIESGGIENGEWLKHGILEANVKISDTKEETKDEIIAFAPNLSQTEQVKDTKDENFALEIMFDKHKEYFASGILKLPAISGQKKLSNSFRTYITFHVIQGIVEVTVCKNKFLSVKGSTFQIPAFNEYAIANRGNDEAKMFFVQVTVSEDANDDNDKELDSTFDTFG

[2] = target: CENP-C^Mif2-Flag (budding yeast) (UniProt P35201); test: as above

CENP-C^Mif2 (from UniProt P35201 1-549)
binding [1]: binds

B1: Mub1-Myc (protein, UniProt Q03162 1-620)
chain: MRDSNHRSLTSNKPIVTITSTVYDRRALDINSSIPLINSLNYLTYLTSNSSKVRETVANDGALERLVSILRSCHLSLFELLDLDLENFNEHENIKDLWKEKRLALCAWKWTLTFQCLVLTGTRGTEQIRKKVVMSGVLSVLVTVLDNYLLYHKNYDFIKDQTMTFDFKGITTETMYKFMRKDENETYQQYIEFITGQDKLKLSTDKNFLNERLVAPSMTIPTDFSDIWGRFADLASNFEPDQERHDDDIDIDSEVESENFDAHKNFFSQPDINRPTISTPREFFLGRIVPKQDDVIWSLQLLAFVSKYTYMKSTLQNVELVESLSFRSMAYKIKQRISEENDLEEQERDVTVKLSSLYPYLSKNPENNSKVKALDTSKMDPFFKELEELSNRCQQEEQNEICNNHCPVLNLFERYRVPKPSDDNAYGKDKERINLRKKISDNFERRWSYDKMKKELTNIVYKNKVLTNVVNIFPLVEKYTVSAENTHDVIYWSSVIMRNSCRKNEILGVRQCANFSCGKWEDFPRQFAKCRRCKRTKYCSRKCQLKAWGYHRYWCHEVGSSHMRSTNTTTGVNTPNEPSSLNATATTAADVSNSTSTFTPNISTTVPDEISNRDENSIPE
binding [2]: binds

Source: paper PMC3567142
